Data as given in PubChem BioAssay AID1671195 (Yale University, 2021)
Test: 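Genes whose knockdown alters LDL uptake in liver cancer cells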 (primary screen). System: human Huh7 hepatoma cells. Reagents: siRNA pool against human genes, 18 nM. Timing: about 2 to 2.5 days of knockdown, then 8 h LDL uptake. Conditions: DiI-labelled LDL at 30 µg/ml for 8 h, in lipoprotein-deficient serum medium. Measurement: 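Per-cell DiI-LDL intensity by automated imaging; well means scaled to the plate median and given as a robust z-score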. Reading the numbers: robust z-score: higher = more LDL uptake after knockdown. Hit rule: 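a gene counts as active if at least two replicate z-scores exceed ±2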.
The whole screen tested about 22,000 reagents; shown is a random part of them. Over the whole deposit, about 1,510 (6.9%) were called active. 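Active includes knockdowns raising or lowering LDL uptake; positive z-scores mean more uptake, negative mean less.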 Reagent sequences are not shown.

target,PubChem SID,"robust z-score, replicate 1","robust z-score, replicate 2","robust z-score, replicate 3",call
NR0B1,SID442895516,-0.834,1,-0.701,inactive
SNTG1,SID442890430,0.404,0.3,0.551,inactive
ABCA1,SID442886626,1.33,1.27,0.712,inactive
PTGDR,SID442899074,-0.803,-0.325,-0.593,inactive
ATG4C,SID442902929,-1.11,-0.968,-1.46,inactive
CRP,SID442900298,-0.72,-0.804,-0.705,inactive
MCU,SID442891434,0.541,0.602,-0.281,inactive
PDE2A,SID442901870,-0.312,-1.29,-1.32,inactive
LZTR1,SID442894516,-0.386,0.173,-0.00123,inactive
LOC441109 (retired record),SID442894975,0.172,-0.588,0.0577,inactive
EIF1B-AS1,SID442885368,0.948,1.96,1.71,inactive
FBN2,SID442889988,1.48,-0.283,0.239,inactive
GPATCH1,SID442894125,0.35,-0.636,0.198,inactive
KCNJ4,SID442890604,0.357,0.0347,0.786,inactive
MAGI3,SID442888286,0.728,0.681,0.839,inactive
LOC439997 (retired record),SID442889859,0.303,0.924,0.269,inactive
RIN1,SID442884282,-1.91,-1.15,-2.29,active
CRACD,SID442895632,1.01,-0.678,-0.897,inactive
MUC21,SID442885905,1.44,1.29,1.25,inactive
DARS1,SID442900015,-0.78,-0.56,-0.76,inactive
KLK9,SID442894106,0.146,-0.295,0.0679,inactive
ITPKC,SID442896609,-0.173,-0.326,-0.378,inactive
DLX6,SID442887716,0.789,0.994,0.787,inactive
LINC00525,SID442898151,-0.344,-0.424,-0.633,inactive
LINC01579,SID442900076,-0.729,-0.747,-0.65,inactive
LOC390258 (retired record),SID442903271,-1.41,-1.06,-1.31,inactive
POPDC2,SID442898390,-0.603,-0.323,-0.553,inactive
DNAJC13,SID442890781,0.29,0.129,0.689,inactive
ABHD4,SID442895709,0.185,-0.208,-0.571,inactive
ANXA8L1,SID442885491,2.52,0.563,1.39,inactive
LOC401072 (retired record),SID442900314,-0.481,-0.517,-1.24,inactive
CYP8B1,SID442897863,-0.716,-0.0309,-0.554,inactive
DMPK,SID442891310,1.27,-0.134,-0.228,inactive
OR52I2,SID442902883,-0.887,-1.62,-0.997,inactive
PRMT2,SID442903626,-1.7,-1.4,-0.919,inactive
OR52E8,SID442886758,0.947,1.13,1.14,inactive
CPXCR1,SID442893087,0.222,-0.763,0.81,inactive
GRIN2C,SID442900917,-0.946,-0.928,-0.603,inactive
DBX2,SID442891159,1.05,0.584,-0.668,inactive
MAGED4B,SID442893628,-0.659,0.424,0.319,inactive
SPATA33,SID442885948,0.153,2.2,1.59,inactive
NXF1,SID442884368,-1.7,-2.22,-2.13,active
LOC388282,SID442889068,0.65,0.675,0.527,inactive
LOC388794 (retired record),SID442893012,0.115,-0.266,0.44,inactive
NEU2,SID442893002,0.0449,-0.277,0.527,inactive
FUT6,SID442891980,0.651,-0.0354,0.0534,inactive
LRRC45,SID442893242,0.516,0.429,-0.726,inactive
DCSTAMP,SID442890500,0.672,-0.193,0.749,inactive
PFN1,SID442883830,2.13,2.86,1.79,active
SGTA,SID442893403,0.104,0.0066,0.0531,inactive
IPO11,SID442896884,-0.649,-0.444,0.125,inactive
PPP1R15B,SID442897775,-0.673,0.0871,-0.682,inactive
ZMAT2,SID442898894,-0.294,-0.609,-0.752,inactive
PTGDS,SID442901024,-0.684,-0.833,-1,inactive
SMAD1,SID442890336,0.287,0.581,0.426,inactive
LOC440939 (retired record),SID442898662,-0.375,-0.613,-0.583,inactive
HTT,SID442888103,0.593,0.0736,1.68,inactive

Reformatted: entries from further up.
{"target":"SPATA33","PubChem SID":"SID442885948","robust z-score, replicate 1":0.153,"robust z-score, replicate 2":2.2,"robust z-score, replicate 3":1.59,"call":"inactive"}
{"target":"NXF1","PubChem SID":"SID442884368","robust z-score, replicate 1":-1.7,"robust z-score, replicate 2":-2.22,"robust z-score, replicate 3":-2.13,"call":"active"}
{"target":"LOC388282","PubChem SID":"SID442889068","robust z-score, replicate 1":0.65,"robust z-score, replicate 2":0.675,"robust z-score, replicate 3":0.527,"call":"inactive"}
{"target":"LOC388794 (retired record)","PubChem SID":"SID442893012","robust z-score, replicate 1":0.115,"robust z-score, replicate 2":-0.266,"robust z-score, replicate 3":0.44,"call":"inactive"}
{"target":"NEU2","PubChem SID":"SID442893002","robust z-score, replicate 1":0.0449,"robust z-score, replicate 2":-0.277,"robust z-score, replicate 3":0.527,"call":"inactive"}
{"target":"FUT6","PubChem SID":"SID442891980","robust z-score, replicate 1":0.651,"robust z-score, replicate 2":-0.0354,"robust z-score, replicate 3":0.0534,"call":"inactive"}
{"target":"LRRC45","PubChem SID":"SID442893242","robust z-score, replicate 1":0.516,"robust z-score, replicate 2":0.429,"robust z-score, replicate 3":-0.726,"call":"inactive"}
{"target":"DCSTAMP","PubChem SID":"SID442890500","robust z-score, replicate 1":0.672,"robust z-score, replicate 2":-0.193,"robust z-score, replicate 3":0.749,"call":"inactive"}
{"target":"PFN1","PubChem SID":"SID442883830","robust z-score, replicate 1":2.13,"robust z-score, replicate 2":2.86,"robust z-score, replicate 3":1.79,"call":"active"}
{"target":"SGTA","PubChem SID":"SID442893403","robust z-score, replicate 1":0.104,"robust z-score, replicate 2":0.0066,"robust z-score, replicate 3":0.0531,"call":"inactive"}
{"target":"IPO11","PubChem SID":"SID442896884","robust z-score, replicate 1":-0.649,"robust z-score, replicate 2":-0.444,"robust z-score, replicate 3":0.125,"call":"inactive"}
{"target":"PPP1R15B","PubChem SID":"SID442897775","robust z-score, replicate 1":-0.673,"robust z-score, replicate 2":0.0871,"robust z-score, replicate 3":-0.682,"call":"inactive"}

The results go on:
target,PubChem SID,"robust z-score, replicate 1","robust z-score, replicate 2","robust z-score, replicate 3",call
PRKG2,SID442888630,0.417,0.858,0.787,inactive
MDFI,SID442889704,0.359,0.577,0.623,inactive
CDX2,SID442903466,-0.62,-2.11,-1.18,inactive
LOC442084 (retired record),SID442904110,-1.59,-1.56,-1.35,inactive
ZNF717,SID442903547,-1.38,-1.13,-1.46,inactive
HOXB1,SID442888480,0.274,0.68,1.18,inactive
ZSCAN16,SID442899038,-0.27,-0.412,-1.03,inactive
OR9G4,SID442885698,1.28,1.58,1.34,inactive
LOC440962 (retired record),SID442890144,0.432,0.629,0.312,inactive
CALB2,SID442883365,3.31,2.78,3.28,active
PPIH,SID442887155,1.6,0.389,0.932,inactive
OR2T4,SID442890072,0.975,0.693,-0.266,inactive
ADGB,SID442890045,0.42,0.494,0.501,inactive
NELFCD,SID442894570,1.2,0.497,-1.93,inactive
ZNRF4,SID442902757,-1.34,-0.612,-1.48,inactive
BEST1,SID442902412,-0.934,-1.34,-0.936,inactive
PANK2,SID442894477,-0.649,0.0998,0.347,inactive
CDIPTOSP,SID442904010,-1.3,-1.68,-1.41,inactive
IFNB1,SID442883649,2.25,2.64,2.64,active
ESF1,SID442885205,1.46,0.955,2.45,inactive
ZFP69B,SID442896320,-0.359,-0.401,-0.0172,inactive
ATOSB,SID442888284,1.17,0.588,0.489,inactive
FABP6,SID442883680,2.03,2.25,3.13,active
IMPDH1P6,SID442894693,-0.299,-0.106,0.134,inactive
EFTUD2,SID442902035,-0.978,-1.08,-0.941,inactive
PRR23B,SID442900197,-0.557,-0.64,-0.986,inactive
TRIM11,SID442898280,-0.833,-0.565,-0.0461,inactive
CFAP144,SID442885024,1.37,1.99,1.8,inactive
STYXL1,SID442888616,0.812,0.724,0.535,inactive
UBE2Z,SID442891395,0.428,-0.0078,0.455,inactive
